From US12485102B2, “Methods and compositions for treating cancer” (The Wistar Institute of Anatomy and Biology, priority 2017, dated 2025)
At least one compound was matched to its structure with a doubt left.

What was measured:
[1] = tested on: CD8+ T cells from OT-1 mice; assay: Seahorse oxygen consumption rates (OXPHOS) of drug-treated OT-1 CD8+ T cells; assay type: cell-based
Description: They were then analyzed for oxygen consumption rates (OCR) by Seahorse (left graph). In addition, after culture all live cells, CD8+ cells and activated CD44+CD8+ cells were counted to assess potential toxicity.
Seahorse experiments were conducted to further characterize the effects of FF on CD8+ T cell metabolism.
Cells were treated with 10 or 100 μM of FFA or FFP for the last 2 days of culture. […] See, FIG. 9. Both drugs increased OXPHOS as shown by increased oxygen consumption rates.

[2] = tested on: CD8+ T cells from OT-1 mice; assay: Phenotype, gene expression, fatty acid uptake and effector functions of drug-treated OT-1 CD8+ T cells in vitro
B16OVA tumor cells = assay: Adoptive transfer of drug-pre-treated OT-1 cells into B16OVA tumor-bearing mice: tumor progression
[3] = tested on: donor OT-1 CD8+ T cells from spleens and tumors; assay: Recovery, phenotypes and functions of donor OT-1 cells from spleens and tumors of recipient mice; assay type: in vivo
mouse melanoma models = assay: Vaccine model: fenofibrate treatment and anti-PD-1 treatment, tumor progression and TILs; assay type: in vivo, mice
[4] = tested on: CD8+ T cells from OT-1 mice; assay: Cell recovery and blast formation of in vitro stimulated, drug-treated OT-1 CD8+ T cells; assay type: cell-based
[5] = tested on: complex I of the electron transport chain; conditions: reference 53; cited from earlier work
[6] = transferred cells treated with 10 μM of FF
[7] = FFA-pre-treated vs diluent, FIG. 12

CC(C)OC(=O)C(C)(C)Oc1ccc(C(=O)c2ccc(Cl)cc2)cc1 [FF, fenofibrate]
oxygen consumption rates (OXPHOS) ([1]; FF-treated cells, 50 μM for 2 days (FIG. 7)): strongly reduced | Cpt-1 expression ([2]; FF-treated cells): increased | Glut-1 expression ([2]; FF-treated cells): subtle | PD-1 expression ([2]; FF-treated cells): subtle | PPAR-α expression ([2]; FF-treated cells): subtle | T-bet ([2]; FF-treated cells): increased | expression levels of Eomes ([2]; FF-treated cells): did not change | expression of CD127 ([2]; FF-treated cells): slight increase | expression of LAG-3 ([2]; FF-treated cells): reduced | fatty acid uptake ([2]; FF-treated cells): increased | gene expression profiling: transcripts of fatty acid metabolism enzymes ([2]; FF-treated cells): increases in transcripts encoding enzymes of mitochondrial and peroxisomal fatty acid beta-oxidation, triglyceride synthesis and ketone body metabolism | production of granzyme B (GrmB) ([2]; FF-treated cells): increased | production of interferon-gamma (IFN-γ) ([2]; FF-treated cells): increased | production of interleukin (IL)-2 ([2]; FF-treated cells): increased | production of tumor necrosis factor-alpha (TNF)-α ([2]; FF-treated cells): decreased | tumor progression vs diluent treated cells (B16OVA tumor cells; [6]): no delay in tumor progression | TIL functions ([3]; FF pretreatment, OT-1 transfer model, FIG. 3): increases TIL functions | Increases in donor cell recovery or functions [3, 6]: not observed | tumor progression (mouse melanoma models; FF treatment of donors, anti-PD-1 treatment of recipients): strongly delay tumor progression | TIL functions (mouse melanoma models; vaccine model, FIG. 2): increases TIL functions | blast formation ([4]; FF 10-50 μM, dose-dependent): reduced

CC(C)(Oc1ccc(C(=O)c2ccc(Cl)cc2)cc1)C(=O)O [FFA, fenofibric acid]
oxygen consumption rates (OXPHOS) ([1]; 10 or 100 μM, last 2 days of culture, FIG. 10): increased | oxygen consumption rates (OXPHOS) ([1]; 10 or 100 μM, last 2 days of culture, FIG. 10, listed as fenofibric acid): increases oxygen consumption rates | fatty acid uptake ([2]; 10 or 100 μM, last 2 days of culture): increased | delay of tumor progression, share of mice (B16OVA tumor cells; FFA pre-treatment of CD8+ T cells): more than half of the mice | growth of the tumor vs naïve or control-treated OT-1 cells (B16OVA tumor cells; cells pretreated with 25 μM, monitored up to 24 days, FIG. 11): inhibited | in vivo efficacy in the B16OVA model (B16OVA tumor cells; cells treated 2 days with 50 μM, FIG. 11): increases in vivo efficacy | weight of the recovered tumors (B16OVA tumor cells; cells treated with 100 μM of FFA, at necropsy): very low in three mice | donor cell recovery from spleens ([3]; FFA group vs DMSO): trend towards higher recovery | frequencies of polyfunctional donor cells ([3]; FFA-pre-treated): higher frequencies | metabolism of fatty acids of donor OT-1 cells ([3]; FFA-pre-treated vs diluent-treated): increased | PD-1 expression of donor cells [3, 7]: trend towards higher PD-1 expression | expression of Cpt-1 in donor CD8+ TILs [3, 7]: trends towards higher expression | expression of PPAR-α in donor CD8+ TILs [3, 7]: trends towards higher expression | frequencies of function-positive donor cells in spleens ([3]; FFA-pre-treated, […], FIG. 13): Very significant increases | frequencies of function-positive donor cells in tumors ([3]; FFA-pre-treated, […], FIG. 13): but not tumors | blast formation ([4]; 100 μM, last 2 days of culture, FIG. 9): but not FFA reduced blast formation | blast formation (scatter by flow cytometry) ([4]; 10 or 100 μM, 2 days, FIG. 9): does not block blast formation | inhibition of complex I of the electron transport chain [5]: does not inhibit complex I
